PubChem BioAssay AID1224826, NIAID – 2016
Aim: 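Knock-downs that raise or lower Tnf reporter signal after endotoxin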 (primary screen). System: RAW264.7 G9 macrophages from mouse bearing reporters for p65 (GFP) and the Tnf promoter (mCherry). Knock-down reagent: siRNA pool against mouse genes, 100 nM. Timing: 16 h of LPS stimulation, after 2 days of siRNA transfection. Challenge: bacterial lipopolysaccharide (Salmonella minnesota R595), 10 ng/ml. Measurement: 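Nuclear mCherry signal of the Tnf promoter reporter measured by imaging after background removal, scaled to each plate median and turned into robust z-scores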. Reading the numbers: Tnf reporter robust z-score: higher = stronger Tnf promoter reporter signal after LPS; Tnf reporter intensity: higher = stronger Tnf promoter reporter signal. Hit rule: 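a well counts as active at a score of -1.3 or below (Tlr4 knock-down control median) or above 3 (raised signal); controls and wells holding fewer than 50 cells are excluded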. Calls: active = Tnf reporter clearly lowered or raised; inactive = no clear change in Tnf reporter.
In all, the deposit lists about 17,000 reagents; below is a random part of them. About 1,110 of all reagents (6.6%) count as active. 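Active means lowered or raised reporter signal; replicate intensities are raw and not normalised per plate.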

Target gene | Tnf reporter robust z-score | fewer than 50 cells in well | Tnf reporter intensity, replicate 1 | Tnf reporter intensity, replicate 2 | outcome
Irebf1 (retired record) | 0.63 | enough cells in well | 245 | 151 | inactive
Efnb3 (ephrin B3) | -0.45 | enough cells in well | 198 | 192 | inactive
Tceal1 (transcription elongation factor A (SII)-like 1) | -0.25 | enough cells in well | 104 | 88.3 | inactive
Cyb5a (cytochrome b5 type A (microsomal)) | 0.37 | enough cells in well | 225 | 267 | inactive
Clpp | 0.66 | enough cells in well | 351 | 207 | inactive
Cd300ld (CD300 molecule like family member d) | -0.73 | enough cells in well | 180 | 50.2 | inactive
Xlr3a (X-linked lymphocyte-regulated 3A) | -1.19 | enough cells in well | 71.1 | 78.1 | inactive
Raet1d (retinoic acid early transcript delta) | 2.51 | enough cells in well | 234 | 244 | inactive
Or52n2b (olfactory receptor family 52 subfamily N member 2B) | 2.94 | enough cells in well | 157 | 284 | inactive
Emx1 (empty spiracles homeobox 1) | 0.11 | enough cells in well | 206 | 273 | inactive
2310030G06Rik (RIKEN cDNA 2310030G06 gene) | – | fewer than 50 cells per well; well left out of calls | 59.9 | 33.1 | inactive
Itga7 (integrin alpha 7) | 0.2 | enough cells in well | 220 | 186 | inactive
Airim (AFG2 interacting ribosome maturation factor) | 0.32 | enough cells in well | 158 | 200 | inactive
Ccdc82 (coiled-coil domain containing 82) | – | fewer than 50 cells per well; well left out of calls | 163 | 48.5 | inactive
4930483J18Rik (RIKEN cDNA 4930483J18 gene) | – | fewer than 50 cells per well; well left out of calls | 250 | 64.1 | inactive
Sparcl1 (SPARC-like 1) | -0.53 | enough cells in well | 197 | 205 | inactive
Ptdss1 (phosphatidylserine synthase 1) | -1.44 | enough cells in well | 136 | 90.7 | active
Or10d5j (olfactory receptor family 10 subfamily D member 5J) | -0.14 | enough cells in well | 136 | 130 | inactive
Lyz3 (lysozyme 3) | -1.42 | enough cells in well | 87.3 | 90 | active
Kras (Kras proto-oncogene, GTPase) | -0.31 | enough cells in well | 246 | 112 | inactive
Dnajc11 (DnaJ heat shock protein family (Hsp40) member C11) | 0.29 | enough cells in well | 224 | 114 | inactive
Rpl14 (ribosomal protein L14) | – | fewer than 50 cells per well; well left out of calls | 75.6 | 41 | inactive
Fndc3b (fibronectin type III domain containing 3B) | – | fewer than 50 cells per well; well left out of calls | 184 | 37.4 | inactive
Zfp423 (zinc finger protein 423) | 0.28 | enough cells in well | 212 | 299 | inactive
Paip1 (polyadenylate binding protein-interacting protein 1) | 2.58 | enough cells in well | 238 | 284 | inactive
Gpx3 (glutathione peroxidase 3) | -0.41 | enough cells in well | 202 | 148 | inactive
Nt5el (5' nucleotidase, ecto-like) | -0.73 | enough cells in well | 127 | 111 | inactive
Irx3os (iroquois homeobox 3, opposite strand) | 0.39 | enough cells in well | 277 | 131 | inactive
Col25a1 (collagen, type XXV, alpha 1) | 1.11 | enough cells in well | 334 | 159 | inactive
Klk1b11 (kallikrein 1-related peptidase b11) | 0.9 | enough cells in well | 264 | 162 | inactive
Ccnc (cyclin C) | -0.6 | enough cells in well | 239 | 125 | inactive
Ahi1 (Abelson helper integration site 1) | -0.09 | enough cells in well | 205 | 176 | inactive
Ssbp2 (single-stranded DNA binding protein 2) | – | fewer than 50 cells per well; well left out of calls | 75.2 | 51.3 | inactive
Stac3 (SH3 and cysteine rich domain 3) | -0.05 | enough cells in well | 207 | 154 | inactive
Vmn1r50 (vomeronasal 1 receptor 50) | 0.27 | enough cells in well | 129 | 86.1 | inactive
Fpr-rs4 (formyl peptide receptor, related sequence 4) | 0.23 | enough cells in well | 273 | 143 | inactive
Pum2 (pumilio RNA-binding family member 2) | -0.42 | enough cells in well | 125 | 97.5 | inactive
Fdft1 (farnesyl diphosphate farnesyl transferase 1) | 0.32 | enough cells in well | 262 | 246 | inactive
Hkdc1 (hexokinase domain containing 1) | -0.63 | enough cells in well | 125 | 205 | inactive
Celf4 (CUGBP, Elav-like family member 4) | 0.13 | enough cells in well | 104 | 191 | inactive
Mtch1 | -0.92 | enough cells in well | 199 | 128 | inactive
B4galnt1 (beta-1,4-N-acetyl-galactosaminyl transferase 1) | -0.69 | enough cells in well | 187 | 189 | inactive
Wnt7b (WNT family member 7B) | -1.02 | enough cells in well | 126 | 181 | inactive
Uchl1 (ubiquitin carboxy-terminal hydrolase L1) | -0.35 | enough cells in well | 205 | 200 | inactive
St13 (suppression of tumorigenicity 13) | -0.39 | enough cells in well | 225 | 202 | inactive
Nsd1 (nuclear receptor-binding SET-domain protein 1) | -0.38 | enough cells in well | 182 | 180 | inactive
Josd2 (Josephin domain containing 2) | 2.48 | enough cells in well | 379 | 170 | inactive
Slc22a3 | -0.46 | enough cells in well | 116 | 52.3 | inactive
Cenpi (centromere protein I) | 0.27 | enough cells in well | 301 | 128 | inactive
Tbce (tubulin-specific chaperone E) | 0.35 | enough cells in well | 280 | 138 | inactive
U2af2 (U2 small nuclear ribonucleoprotein auxiliary factor (U2AF) 2) | – | fewer than 50 cells per well; well left out of calls | 370 | 89 | inactive
Rad23b (RAD23 homolog B, nucleotide excision repair protein) | 0.14 | enough cells in well | 350 | 197 | inactive
Cisd1 (CDGSH iron sulfur domain 1) | -0.4 | enough cells in well | 178 | 134 | inactive
Bmal1 (basic helix-loop-helix ARNT like 1) | -0.73 | enough cells in well | 113 | 144 | inactive
Phpt1 (phosphohistidine phosphatase 1) | -0.27 | enough cells in well | 233 | 166 | inactive
Tspan7 (tetraspanin 7) | 0.55 | enough cells in well | 260 | 169 | inactive
Zfp696 (zinc finger protein 696) | 2.24 | enough cells in well | 366 | 279 | inactive
Pik3r3 (phosphoinositide-3-kinase regulatory subunit 3) | 0.67 | enough cells in well | 281 | 160 | inactive
